# Measurements published in article PMC4749977, “Alp7/TACC-Alp14/TOG generates long-lived, fast-growing MTs by an unconventional mechanism” (Scientific Reports, 2016).
# The chains behind the UniProt entries cited, without tags or fusion partners. Where a name states a change or a piece, a line headed by the entry shows the natural chain unless it says otherwise.
# UniProt P04688: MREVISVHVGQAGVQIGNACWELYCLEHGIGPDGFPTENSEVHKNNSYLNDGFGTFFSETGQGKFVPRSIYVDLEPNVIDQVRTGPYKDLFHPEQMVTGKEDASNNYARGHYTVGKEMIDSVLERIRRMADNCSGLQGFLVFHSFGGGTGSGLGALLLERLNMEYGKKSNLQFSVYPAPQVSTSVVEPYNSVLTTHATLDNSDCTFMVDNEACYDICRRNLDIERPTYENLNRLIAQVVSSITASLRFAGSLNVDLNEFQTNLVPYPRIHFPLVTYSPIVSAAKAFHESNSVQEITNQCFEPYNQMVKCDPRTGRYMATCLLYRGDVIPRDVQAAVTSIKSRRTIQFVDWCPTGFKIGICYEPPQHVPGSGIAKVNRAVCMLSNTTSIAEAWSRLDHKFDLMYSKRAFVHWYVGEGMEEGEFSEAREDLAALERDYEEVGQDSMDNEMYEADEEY
# These are yes or no findings as the source states them, for the method shown. Sequences can lack the tags named with a protein.
# B1: Alp7, full length, with an N-terminal avi-tag (natural protein, S. pombe, UniProt Q9URY2 1-474, looked up)
# chain: MSDIVSSSTDYSRRSPSSSSIGTNETDHTGFHEKRQGASSESLIPPAQRSSEESMPAPKLFPKLTSKPNPQLNLKDTLNKRVSDRLQALELNKSFDFSGTPRPMHPISHPLSQHKTPEFKHRKRNVESILTPKNPSLFSSSNAASQRGSLNTAPSNFAYSHSSSLQTSASSRPPVLSNGSFPRQTNTAPLNPPVHLKDNIRNSATPSTSQADIPTQYPINSTQKQQAKYEAEIEGYKAKLAGTYHEISVLQNTIVNVSGQLIAVNDQLQQLRSGKASTSPSTKDTNMRLVEGHNEETLALQRGKYTQEEVDKLIQERMEKVAEDLHAQYSAKHTQKINAFKANYARKYEATIQELQNQIGTAPNAPKISNSNWEEERRALKADNQTLQKQLEKAIQERQDMSDFLNNFKADMAKSDKLLMQQQSQQTGDLETLRLQLQALQEELRVEREERQQLIQMSEDLVIAMDQLNLEQKS
# modifications: biotin on the AviTag (BirA ligase co-expressed to ensure biotinylation)
# notes: Alp7 (Mia1p), TACC-family protein of S. pombe, full length; gene PCR-amplified from wild-type genomic S. pombe DNA; also called Alp7/TACC; Mia1p; source: Sf9 insect cells (baculovirus, BirA ligase co-expressed), purified on monomeric avidin agarose
# Molecular target: T1, S. pombe single isoform (α1β) tubulin (S. pombe, UniProt P04688 1-455; P05219 1-448)
# T1 construct: alpha-1 tubulin (α1) of S. pombe, from strain mmsp174 (atb2 replaced by nda2+); beta tubulin (β) of S. pombe, from strain mmsp174; Stands both as the free GTP-tubulin heterodimer and as the growing plus end of the microtubule polymerised from it; which of the two is meant is told in the assay's format and the quantity; also called GTP-tubulin; T (tubulin dimer); source: purified from S. pombe …
# Assay: glycerol gradient centrifugation; 5-40% glycerol gradient of purified Alp14, Alp7 and tubulin, alone or mixed; tubulin as GTP-tubulin where stated; fractions on SDS-PAGE with Coomassie staining; both purified
binder,measurement,value
B1,binding,no binding
